The other results are listed elsewhere or left out.
B1: il2ra_site2_2erj_sap_18_mot_HHH_b1_00133_000000007_0001_39_52_H_._HHH_b1_08152_0001_0000600018_0000001_0_0001 (protein)
chain: SSSDEEELRKVLEEIEKALEEGDVQKLNELIAEAIRLVERVNDPELLRILWELMREIHEKLSSSS
B2: il2ra_site1_3nfp_sap_14_mot_HHH_b1_02247_af2_000000083_0001_41_56_H_._HHH_b1_02540_0001_0000500010_0000001_0_0001_af2pred_0001_af2pred (protein)
chain: SSSSSDYEERVEELLEEAKRIEDPQEANKVLKEAIKLALENDDPELWKLVLRVLRELAGSSSSSS
B3: il2ra_site2_3nfp_normal_mot_ems_3hM_287_af2_000000177_0001_46_64_H_._HHH_b2_01231_af2_0001_0000800040_0000001_0_af2pred_0001_1_af2pred_swapped (protein)
chain: SSSSDEEEKEVEELLQKAKELLERGNPEEAEKVVRKAAHIAVKINNEELFMAASKLLEEIGSSSS
B4: il2ra_site1_2b5i_sap_14_mot_HHH_b2_01822_000000237_0001_40_54_H_._HHH_b2_07448_0001_0000100004_0000001_0_0001_af2pred_0001_af2pred_1 (protein)
chain: SSSSDKELNKFVAEVVDRLAEEFNLNAEQLNELIRLATRLIWRGVSPEEIEELLEKLARELSSSS
B5: il2ra_site2_3nfp_normal_mot_HHH_b1_06415_000000189_0001_43_56_H_._HHH_b1_00482_0001_0000100005_0000001_0 (protein)
chain: SSSSSRLEEFVEWILLAVRVAETERQREVIREALEHAKFRAEELNDEEAKELLREAEELLKSSSS
B6: il2ra_site1_3nfp_sap_19_mot_HHH_b1_07560_af2_000000209_0001_40_57_H_._HHH_b1_05998_0001_0000100001_0000001_0_0001 (protein)
chain: SEEEEEAEELLKRRLPPIAVRALELLARAVKEGNPNAERRLRYDEEVAEKLGDEDVVRAIELLRK
B7: il2ra_site1_1z92_normal_mot_b4c6f5f17c500cb19b718c065e23fe7c_0001_1_000000294_0001_37_51_H_._ems_ferrM_7375_0001_0000400020_0000001_0 (protein)
chain: WVTFHINGNDKKAEHLVKLAELHPQVRFEETPGNTVDIEVESPSLARDLELAAKMAGVDFEVEES
B8: il2ra_site2_2erj_normal_mot_HHH_b1_00612_000000025_0001_42_56_H_._HHH_b1_01371_af2_0001_0000700020_0000001_0 (protein)
chain: SSSSSDAWELAARASIEALELFKEGNPEEARRVLEEALEEVEELNNEAAARYLELALRELSSSSS
B9: il2ra_site2_3nfp_normal_mot_HHH_b1_01177_af2_000000173_0001_20_36_H_._HHH_b1_06332_0001_0000100004_0000001_0 (protein)
chain: SSSSTEELQRAVEYLIIAVELWGNPEVVEEAEELLEEAEKKKDKRLFSEAVHLLYRVAEELSSSS
B10: il2ra_site2_3nfp_sap_14_mot_HHH_b1_06589_000000230_0001_37_50_H_._HHH_b2_03910_0001_0000400016_0000001_0_0001_af2pred_0001_1_af2pred_swapped (protein)
chain: SSSSDEEEAEKALEQAERVLENGNPEEAEKLLKRAALLASELGDHELFARIVELFEKVRRRSSSS

Molecular target: il2ra, P01589
Test: yeast display titration

Apparent Kd, inactive:
B1 no binding seen
B2 no binding seen
B3 no binding seen
B4 no binding seen
B5 no binding seen
B6 no binding seen
B7 no binding seen
B8 no binding seen
B9 no binding seen
B10 no binding seen

Fetched one by one from the entries so far (2):
Apparent Kd, inactive:
B10 no binding seen
B3 no binding seen
